Assay results: PMC8304650
No constants are given. Whether binding was seen depends on the method and setting. Binding seen in cells or lysates may run through a third protein. Some binding calls cover weakened binding; strength is not graded here.

Protein sequences, listed by entry. Tags and fused reporters are not part of them.
UniProt P17676: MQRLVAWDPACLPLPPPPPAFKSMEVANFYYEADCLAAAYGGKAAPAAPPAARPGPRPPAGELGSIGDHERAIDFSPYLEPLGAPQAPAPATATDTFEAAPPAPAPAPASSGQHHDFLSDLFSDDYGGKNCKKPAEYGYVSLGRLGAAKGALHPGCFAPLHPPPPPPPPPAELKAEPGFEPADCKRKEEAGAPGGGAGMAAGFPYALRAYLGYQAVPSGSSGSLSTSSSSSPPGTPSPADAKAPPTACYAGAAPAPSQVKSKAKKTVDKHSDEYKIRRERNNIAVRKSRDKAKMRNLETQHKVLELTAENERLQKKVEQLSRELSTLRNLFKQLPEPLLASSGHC
UniProt P49715: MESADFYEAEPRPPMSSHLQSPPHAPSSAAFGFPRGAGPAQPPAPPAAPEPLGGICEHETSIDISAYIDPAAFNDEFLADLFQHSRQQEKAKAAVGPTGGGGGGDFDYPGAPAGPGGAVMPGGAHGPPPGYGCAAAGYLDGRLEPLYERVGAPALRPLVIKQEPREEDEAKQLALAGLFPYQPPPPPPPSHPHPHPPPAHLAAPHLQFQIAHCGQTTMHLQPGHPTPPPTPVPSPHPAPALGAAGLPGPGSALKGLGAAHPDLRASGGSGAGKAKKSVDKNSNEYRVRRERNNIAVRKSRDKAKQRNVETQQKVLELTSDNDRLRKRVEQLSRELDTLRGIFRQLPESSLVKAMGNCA
UniProt P49792: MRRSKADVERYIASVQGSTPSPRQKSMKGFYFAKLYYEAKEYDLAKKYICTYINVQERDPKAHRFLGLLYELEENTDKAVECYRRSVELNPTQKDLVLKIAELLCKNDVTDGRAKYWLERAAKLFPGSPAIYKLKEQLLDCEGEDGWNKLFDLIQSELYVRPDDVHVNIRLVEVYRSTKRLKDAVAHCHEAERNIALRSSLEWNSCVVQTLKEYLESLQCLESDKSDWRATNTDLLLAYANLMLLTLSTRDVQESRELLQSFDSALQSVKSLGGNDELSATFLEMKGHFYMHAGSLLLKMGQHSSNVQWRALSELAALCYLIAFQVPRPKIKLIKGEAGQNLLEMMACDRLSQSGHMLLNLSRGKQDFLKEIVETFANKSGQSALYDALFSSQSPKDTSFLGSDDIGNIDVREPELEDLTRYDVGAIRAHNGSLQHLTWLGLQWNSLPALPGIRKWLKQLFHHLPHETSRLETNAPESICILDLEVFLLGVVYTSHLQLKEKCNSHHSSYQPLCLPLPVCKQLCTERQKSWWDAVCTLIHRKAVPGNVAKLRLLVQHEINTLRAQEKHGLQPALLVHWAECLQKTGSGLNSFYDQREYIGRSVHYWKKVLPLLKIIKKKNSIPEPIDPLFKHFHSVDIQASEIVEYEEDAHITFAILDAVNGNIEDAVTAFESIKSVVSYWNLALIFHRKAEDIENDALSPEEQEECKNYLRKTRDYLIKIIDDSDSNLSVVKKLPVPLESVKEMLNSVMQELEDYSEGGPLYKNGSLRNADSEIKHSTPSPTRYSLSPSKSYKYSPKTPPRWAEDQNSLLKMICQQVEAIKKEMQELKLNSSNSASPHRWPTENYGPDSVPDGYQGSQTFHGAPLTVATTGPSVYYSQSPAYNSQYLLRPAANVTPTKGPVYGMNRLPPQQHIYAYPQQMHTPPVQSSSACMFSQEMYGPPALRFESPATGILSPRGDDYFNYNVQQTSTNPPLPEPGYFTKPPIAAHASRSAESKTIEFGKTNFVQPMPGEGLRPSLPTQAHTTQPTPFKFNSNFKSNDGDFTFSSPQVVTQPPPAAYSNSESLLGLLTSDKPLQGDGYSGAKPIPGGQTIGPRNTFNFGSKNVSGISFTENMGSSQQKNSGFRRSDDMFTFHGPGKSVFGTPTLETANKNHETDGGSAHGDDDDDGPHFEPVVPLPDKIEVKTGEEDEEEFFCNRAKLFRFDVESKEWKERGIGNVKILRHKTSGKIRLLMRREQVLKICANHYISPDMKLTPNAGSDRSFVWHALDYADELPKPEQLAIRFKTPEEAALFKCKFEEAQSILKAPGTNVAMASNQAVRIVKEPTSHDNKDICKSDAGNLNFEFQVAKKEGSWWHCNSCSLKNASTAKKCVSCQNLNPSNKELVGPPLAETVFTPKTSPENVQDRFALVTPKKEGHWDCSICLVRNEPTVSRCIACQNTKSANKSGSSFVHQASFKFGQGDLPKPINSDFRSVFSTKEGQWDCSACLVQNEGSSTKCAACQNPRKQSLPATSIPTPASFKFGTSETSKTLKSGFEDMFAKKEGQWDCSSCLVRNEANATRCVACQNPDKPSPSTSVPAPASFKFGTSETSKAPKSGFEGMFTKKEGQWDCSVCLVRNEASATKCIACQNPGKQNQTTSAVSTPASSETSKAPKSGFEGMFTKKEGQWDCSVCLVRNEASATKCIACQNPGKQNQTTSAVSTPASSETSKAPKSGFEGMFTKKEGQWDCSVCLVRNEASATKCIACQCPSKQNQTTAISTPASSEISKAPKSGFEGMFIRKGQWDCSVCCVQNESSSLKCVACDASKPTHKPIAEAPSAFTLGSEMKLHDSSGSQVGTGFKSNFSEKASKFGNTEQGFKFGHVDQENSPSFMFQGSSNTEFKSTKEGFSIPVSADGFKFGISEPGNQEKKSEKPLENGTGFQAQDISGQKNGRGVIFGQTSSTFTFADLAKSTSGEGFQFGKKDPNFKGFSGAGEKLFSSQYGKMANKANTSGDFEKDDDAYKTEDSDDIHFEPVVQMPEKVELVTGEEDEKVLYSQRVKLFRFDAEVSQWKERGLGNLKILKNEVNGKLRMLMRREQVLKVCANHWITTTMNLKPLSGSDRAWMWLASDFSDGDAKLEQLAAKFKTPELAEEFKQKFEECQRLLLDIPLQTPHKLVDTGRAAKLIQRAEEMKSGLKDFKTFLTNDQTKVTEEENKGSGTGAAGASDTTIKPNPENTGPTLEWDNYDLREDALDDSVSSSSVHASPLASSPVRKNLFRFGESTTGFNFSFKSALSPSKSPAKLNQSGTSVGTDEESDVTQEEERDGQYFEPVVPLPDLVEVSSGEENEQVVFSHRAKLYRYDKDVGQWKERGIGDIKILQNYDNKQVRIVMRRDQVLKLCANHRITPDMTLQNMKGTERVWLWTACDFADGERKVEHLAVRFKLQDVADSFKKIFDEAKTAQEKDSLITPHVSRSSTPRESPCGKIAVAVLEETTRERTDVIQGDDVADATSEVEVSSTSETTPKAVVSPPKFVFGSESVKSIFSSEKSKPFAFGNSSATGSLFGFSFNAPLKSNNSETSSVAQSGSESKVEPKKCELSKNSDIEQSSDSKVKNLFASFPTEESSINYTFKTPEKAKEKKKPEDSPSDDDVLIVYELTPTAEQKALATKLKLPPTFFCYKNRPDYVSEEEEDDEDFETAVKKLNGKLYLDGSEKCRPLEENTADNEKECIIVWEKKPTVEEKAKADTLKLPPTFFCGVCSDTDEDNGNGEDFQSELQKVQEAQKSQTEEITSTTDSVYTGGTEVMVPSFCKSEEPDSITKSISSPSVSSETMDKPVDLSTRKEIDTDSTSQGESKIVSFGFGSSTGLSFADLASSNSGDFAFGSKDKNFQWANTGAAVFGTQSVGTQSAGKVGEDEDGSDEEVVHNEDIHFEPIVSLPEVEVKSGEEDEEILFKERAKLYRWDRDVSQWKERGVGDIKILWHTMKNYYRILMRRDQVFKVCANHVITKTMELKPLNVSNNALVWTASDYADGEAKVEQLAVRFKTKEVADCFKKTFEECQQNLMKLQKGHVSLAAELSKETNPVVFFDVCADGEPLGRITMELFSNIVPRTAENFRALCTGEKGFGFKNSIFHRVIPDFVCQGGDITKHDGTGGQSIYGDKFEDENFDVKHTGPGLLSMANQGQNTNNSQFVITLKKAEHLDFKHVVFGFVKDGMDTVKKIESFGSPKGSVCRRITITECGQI

Columns and labels:
Test in all cases: co-IP; endogenous proteins; lysates of HCC cells (Hep3B, HepG2) in RIPA buffer, 1-2 mg total protein with 2 μg primary antibody, protein G-agarose, immunoblot; control cells and cells with sh-RANBP2 and/or sh-CEBPα
[1] = target: CCAAT/enhancer-binding protein beta (CEBPβ), endogenous (human (endogenous in Hep3B and HepG2)) (UniProt P17676)
[2] = target: CCAAT/enhancer-binding protein alpha (CEBPα), endogenous (human (endogenous in Hep3B and HepG2)) (UniProt P49715)
[3] = target: T1, O-GlcNAcase (OGA), endogenous (human (endogenous in HCC cells)) (UniProt O60502)
T1 sequence: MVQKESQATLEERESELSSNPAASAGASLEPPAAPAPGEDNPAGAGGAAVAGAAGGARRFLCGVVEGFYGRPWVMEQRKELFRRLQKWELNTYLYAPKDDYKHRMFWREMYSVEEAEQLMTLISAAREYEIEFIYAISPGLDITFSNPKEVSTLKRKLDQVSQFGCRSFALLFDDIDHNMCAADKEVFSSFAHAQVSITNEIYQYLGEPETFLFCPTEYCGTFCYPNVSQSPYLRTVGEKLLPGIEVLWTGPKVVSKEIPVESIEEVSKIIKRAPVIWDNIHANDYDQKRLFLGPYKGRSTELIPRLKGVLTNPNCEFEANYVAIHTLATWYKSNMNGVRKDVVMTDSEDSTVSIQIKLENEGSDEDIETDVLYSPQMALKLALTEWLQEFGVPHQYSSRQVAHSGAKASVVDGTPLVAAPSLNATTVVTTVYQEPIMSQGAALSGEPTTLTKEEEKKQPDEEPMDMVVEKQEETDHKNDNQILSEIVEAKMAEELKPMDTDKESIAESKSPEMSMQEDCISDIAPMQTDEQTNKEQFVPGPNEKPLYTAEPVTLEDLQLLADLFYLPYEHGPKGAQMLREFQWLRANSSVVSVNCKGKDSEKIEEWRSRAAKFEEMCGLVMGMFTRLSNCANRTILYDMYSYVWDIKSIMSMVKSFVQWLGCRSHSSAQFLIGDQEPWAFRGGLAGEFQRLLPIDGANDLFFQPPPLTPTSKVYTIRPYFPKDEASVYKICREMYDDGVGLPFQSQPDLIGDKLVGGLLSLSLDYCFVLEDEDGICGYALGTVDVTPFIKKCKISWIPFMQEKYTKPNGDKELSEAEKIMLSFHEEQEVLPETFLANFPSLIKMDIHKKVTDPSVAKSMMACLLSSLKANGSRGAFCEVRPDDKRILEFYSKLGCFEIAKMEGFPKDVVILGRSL

[4] = target: T2, peroxisome proliferative-activated receptor gamma coactivator 1 alpha (PGC1α), endogenous (human (endogenous in HCC cells)) (UniProt Q9UBK2)
T2 sequence (chain, O-GlcNAc (sites not given)): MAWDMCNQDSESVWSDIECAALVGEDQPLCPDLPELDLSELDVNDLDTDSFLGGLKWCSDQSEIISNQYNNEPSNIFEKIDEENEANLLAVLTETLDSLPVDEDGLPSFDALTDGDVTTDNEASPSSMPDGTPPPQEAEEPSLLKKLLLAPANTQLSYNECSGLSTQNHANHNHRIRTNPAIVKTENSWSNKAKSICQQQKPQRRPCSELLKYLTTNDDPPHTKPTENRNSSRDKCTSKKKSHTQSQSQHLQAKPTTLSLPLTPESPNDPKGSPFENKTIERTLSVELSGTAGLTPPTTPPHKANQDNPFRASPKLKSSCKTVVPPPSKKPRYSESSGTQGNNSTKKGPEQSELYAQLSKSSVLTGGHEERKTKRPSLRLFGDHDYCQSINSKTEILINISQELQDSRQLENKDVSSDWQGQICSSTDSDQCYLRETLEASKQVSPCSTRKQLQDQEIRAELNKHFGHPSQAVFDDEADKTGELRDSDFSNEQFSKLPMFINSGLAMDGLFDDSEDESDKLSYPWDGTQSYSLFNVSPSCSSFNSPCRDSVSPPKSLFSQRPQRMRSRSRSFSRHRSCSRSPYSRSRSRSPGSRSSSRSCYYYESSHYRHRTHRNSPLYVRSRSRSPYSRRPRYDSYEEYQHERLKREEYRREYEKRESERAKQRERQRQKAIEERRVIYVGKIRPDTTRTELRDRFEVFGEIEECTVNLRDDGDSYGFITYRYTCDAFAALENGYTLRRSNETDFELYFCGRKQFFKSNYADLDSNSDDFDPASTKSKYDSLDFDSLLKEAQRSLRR

With “RAN-binding protein 2 (RANBP2), endogenous (from UniProt P49792 1-3224)” the binding [1] was “no binding”, the binding [2] was “binds” and the binding [3] was “no binding”.

B1: O-GlcNAcase (OGA), endogenous (enzyme, UniProt O60502 1-916)
chain: MVQKESQATLEERESELSSNPAASAGASLEPPAAPAPGEDNPAGAGGAAVAGAAGGARRFLCGVVEGFYGRPWVMEQRKELFRRLQKWELNTYLYAPKDDYKHRMFWREMYSVEEAEQLMTLISAAREYEIEFIYAISPGLDITFSNPKEVSTLKRKLDQVSQFGCRSFALLFDDIDHNMCAADKEVFSSFAHAQVSITNEIYQYLGEPETFLFCPTEYCGTFCYPNVSQSPYLRTVGEKLLPGIEVLWTGPKVVSKEIPVESIEEVSKIIKRAPVIWDNIHANDYDQKRLFLGPYKGRSTELIPRLKGVLTNPNCEFEANYVAIHTLATWYKSNMNGVRKDVVMTDSEDSTVSIQIKLENEGSDEDIETDVLYSPQMALKLALTEWLQEFGVPHQYSSRQVAHSGAKASVVDGTPLVAAPSLNATTVVTTVYQEPIMSQGAALSGEPTTLTKEEEKKQPDEEPMDMVVEKQEETDHKNDNQILSEIVEAKMAEELKPMDTDKESIAESKSPEMSMQEDCISDIAPMQTDEQTNKEQFVPGPNEKPLYTAEPVTLEDLQLLADLFYLPYEHGPKGAQMLREFQWLRANSSVVSVNCKGKDSEKIEEWRSRAAKFEEMCGLVMGMFTRLSNCANRTILYDMYSYVWDIKSIMSMVKSFVQWLGCRSHSSAQFLIGDQEPWAFRGGLAGEFQRLLPIDGANDLFFQPPPLTPTSKVYTIRPYFPKDEASVYKICREMYDDGVGLPFQSQPDLIGDKLVGGLLSLSLDYCFVLEDEDGICGYALGTVDVTPFIKKCKISWIPFMQEKYTKPNGDKELSEAEKIMLSFHEEQEVLPETFLANFPSLIKMDIHKKVTDPSVAKSMMACLLSSLKANGSRGAFCEVRPDDKRILEFYSKLGCFEIAKMEGFPKDVVILGRSL
For B1, the binding [4] was “binds”.
